# From patent publication US12391768B2, “Antibodies to ticagrelor and methods of use” (MEDIMMUNE LIMITED, priority 2014, dated 2025)
# Protein sequences, listed by entry. Tags and fused reporters are not part of them. Lines headed by an entry give the natural chain unless they say otherwise; changes in a name come on top.
# UniProt Q9H244: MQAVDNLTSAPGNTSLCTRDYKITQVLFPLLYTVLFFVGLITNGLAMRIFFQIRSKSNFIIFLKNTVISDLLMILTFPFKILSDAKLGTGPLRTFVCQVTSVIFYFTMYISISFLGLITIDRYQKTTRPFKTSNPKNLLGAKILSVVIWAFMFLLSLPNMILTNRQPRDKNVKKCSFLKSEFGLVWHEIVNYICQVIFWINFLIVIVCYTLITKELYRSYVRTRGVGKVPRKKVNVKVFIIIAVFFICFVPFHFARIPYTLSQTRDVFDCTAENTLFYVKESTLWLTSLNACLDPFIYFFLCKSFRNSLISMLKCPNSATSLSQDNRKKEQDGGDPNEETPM
# pIC50: −log10 of the molar value. Several values for one entry are separate records, joined by “and”; a condition that tells them apart may be missing. Active and inactive are the words of the source; unless stated, no cut-off is given here. Equal values may be shown once. Read-outs that look alike come from different tables or passages of the source. At least one structure is not confirmed: it was looked up by name or label, or the drawing left a doubt.
# Columns and labels:
# TICA0162 Fab = assay: HTRF competition binding selectivity assay, TICA0162 His-Fab; design: species or system human; details: Table 7, DMSO normalised; 5 nM biotinylated ticagrelor, 1 nM His Fab; read-out: IC50 (uM) for inhibition of biotinylated ticagrelor binding to TICA0162 Fab
# Experimental: (§1) Total Binding control wells were set up which contained all of the assay components above except that 5 ul assay buffer was added in place of the test selectivity compound addition. Negative Binding control wells were set up which contained all of the assay components included in the Total Binding control wells except that 5ul assay buffer was added in place of the His-Fab addition. Test compound serial titrations were either ½ or ⅓ depending on the particular experiment and top final assay compound concentrations were optimized on a compound specific basis. The concentration of biotinylated ticagrelor and His-Fab was optimized on a Fab specific basis in separate experiments. For the four Fabs investigated at the end of the lead isolation phase (TICA0010, TICA0049, TICA0053 and TICA0072) the final assay reagent concentrations used are set out in Table 1 below:
# (§2) For the two Fabs investigated at the end of the lead optimization phase (TICA0162 and TICA0212) the final assay reagent concentrations used were 5nM biotinylated ticagrelor and 1 nM His Fab in both cases. […] At the end of the set up procedure that assay was incubated for 3hrs at RT before being read on an Envision plate reader using a standard read protocol. […]
# TICA0049 Fab = assay: HTRF competition binding selectivity assay, TICA0049 His-Fab; design: species or system human; details: for IC50: read-out: IC50 (uM) for inhibition of biotinylated ticagrelor binding to TICA0049 his-Fab; for pIC50: read-out: IC50 in competition binding selectivity studies, TICA0049
# Experimental: as §1
# (§3) For the two Fabs investigated at the end of the lead optimization phase (TICA0162 and TICA0212) the final assay reagent concentrations used were 5nM biotinylated ticagrelor and 1 nM His Fab in both cases. […] In order to enable subsequent normalization of data to correct for any such vehicle related effects parallel titrations of DMSO alone were included in most experiments in which the final assay DMSO concentrations mirrored those of the test compound serial dilutions. At the end of the set up procedure that assay was incubated for 3hrs at RT before being read on an Envision plate reader using a standard read protocol.
# (§4) The negative ratio value used in the calculation of % Delta F was derived from the Negative Binding control wells. % Delta F values were then used to calculate % Specific Binding values according to the equation below: Specific Binding (%)={(Sample Delta F−Negative Binding Delta F)/(Total Binding Delta F−Negative Binding Delta F)}×100
# (§5) For standard calculations of % Specific Binding Total Binding Delta F was taken from Total Binding control wells which contained all of the aforementioned components of the assay but without inclusion of any competing test compound.
# (§6) In those experiments where DMSO normalization was applied DMSO normalised % Specific Binding was calculated essentially according to the equation above except that in this case Total Binding Delta F was taken from wells containing all of the components in the Total Binding control wells as well as DMSO at a concentration equivalent to that in the relevant sample well.
# (§7) In a second series of experiments further selectivity data was generated for TICA0049 and TICA0072 Fabs in which a subset of four of the twelve compounds listed in FIG. 4 were retested along with ticagrelor, TAM and TIM and several adenosine related compounds. Here, in a refinement to the earlier investigations in Table 2, experiments were designed in order to enable normalisation of percent specific binding values to correct for any non-specific vehicle related effects due to DMSO. Example plotted data from this second series of experiments is shown in FIG. 5A-F along with tabulated IC50 values in Table 3.
# TICA0072 Fab = assay: HTRF competition binding selectivity assay, TICA0072 His-Fab; design: species or system human; details: for IC50: read-out: IC50 (uM) for inhibition of biotinylated ticagrelor binding to TICA0072 his-Fab; for pIC50: second series (Table 3), DMSO normalised, read-out: IC50 in competition binding selectivity studies, TICA0072
# Experimental: as §1, §3, §4, §5, §6, §7
# P2Y12 = P2Y12 (Homo sapiens, UniProt Q9H244); details: cited from earlier work
# TICA0212 Fab = assay: HTRF competition binding selectivity assay, TICA0212 His-Fab; design: species or system human; details: Table 7, DMSO normalised; 5 nM biotinylated ticagrelor, 1 nM His Fab; read-out: IC50 (uM) for inhibition of biotinylated ticagrelor binding to TICA0212 Fab
# Experimental: as §1, §2
# [1] = first series (Table 2), not DMSO normalised
# [2] = second series (Table 3), DMSO normalised
Compound,IC50 (TICA0162 Fab) [µM],IC50 (uM) for inhibition of biotinylated ticagrelor binding to TICA0049 his-Fab (TICA0049 Fab; [1]),IC50 (TICA0049 Fab; [1]),"IC50 in competition binding selectivity studies, TICA0049 (TICA0049 Fab; [2])",pIC50 (TICA0049 Fab; [2]),IC50 (uM) for inhibition of biotinylated ticagrelor binding to TICA0072 his-Fab (TICA0072 Fab; [1]),IC50 (TICA0072 Fab; [1]),pIC50 (TICA0072 Fab; listed as pantoprazole),pIC50 (TICA0072 Fab),P2Y12 antagonist activity (P2Y12),IC50 (TICA0212 Fab) [µM]
COc1ccnc(C[S+]([O-])c2nc3ccc(OC(F)F)cc3[nH]2)c1OC (stereo not shown) [Pantoprazole],> 1000,partial competitive inhibition,264 µM,significant inhibition,3.61,"weak, partial inhibition",498 µM,< 2.82,2.81,,
CCCSc1nc(N)c2nnn(C3CC(OCCO)C(O)C3O)c2n1 (stereo not shown) [TIM],19.8,,> 50 µM and 53.4 µM,,4.13,,> 50 µM and 54.4 µM,,3.92,inactive,28.8
